The text below walks through data of paper PMC8117505.

Amino acid sequences for entries named in this document (tags omitted).
UniProt Q16665: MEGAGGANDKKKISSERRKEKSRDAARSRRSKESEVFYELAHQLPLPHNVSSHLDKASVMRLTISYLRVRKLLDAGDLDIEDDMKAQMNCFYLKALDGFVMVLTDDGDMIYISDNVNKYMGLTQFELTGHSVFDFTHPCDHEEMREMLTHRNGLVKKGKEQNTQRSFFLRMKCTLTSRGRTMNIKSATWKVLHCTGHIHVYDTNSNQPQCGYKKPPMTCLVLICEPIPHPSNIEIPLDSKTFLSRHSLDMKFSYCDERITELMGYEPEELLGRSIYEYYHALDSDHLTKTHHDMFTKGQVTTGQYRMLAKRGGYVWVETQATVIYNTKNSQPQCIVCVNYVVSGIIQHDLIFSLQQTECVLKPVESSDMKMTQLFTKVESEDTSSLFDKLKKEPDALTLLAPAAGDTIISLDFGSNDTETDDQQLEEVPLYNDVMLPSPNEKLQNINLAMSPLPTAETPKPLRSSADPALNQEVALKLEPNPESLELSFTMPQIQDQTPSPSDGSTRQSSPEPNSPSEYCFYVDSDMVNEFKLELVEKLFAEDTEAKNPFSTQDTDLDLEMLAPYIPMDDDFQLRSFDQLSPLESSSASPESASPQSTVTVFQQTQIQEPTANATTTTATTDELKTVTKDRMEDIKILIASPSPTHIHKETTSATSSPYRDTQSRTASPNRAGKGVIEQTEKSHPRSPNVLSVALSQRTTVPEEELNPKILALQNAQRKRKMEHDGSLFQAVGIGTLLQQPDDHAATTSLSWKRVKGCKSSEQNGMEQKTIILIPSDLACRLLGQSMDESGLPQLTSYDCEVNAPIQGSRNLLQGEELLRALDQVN
UniProt P27540: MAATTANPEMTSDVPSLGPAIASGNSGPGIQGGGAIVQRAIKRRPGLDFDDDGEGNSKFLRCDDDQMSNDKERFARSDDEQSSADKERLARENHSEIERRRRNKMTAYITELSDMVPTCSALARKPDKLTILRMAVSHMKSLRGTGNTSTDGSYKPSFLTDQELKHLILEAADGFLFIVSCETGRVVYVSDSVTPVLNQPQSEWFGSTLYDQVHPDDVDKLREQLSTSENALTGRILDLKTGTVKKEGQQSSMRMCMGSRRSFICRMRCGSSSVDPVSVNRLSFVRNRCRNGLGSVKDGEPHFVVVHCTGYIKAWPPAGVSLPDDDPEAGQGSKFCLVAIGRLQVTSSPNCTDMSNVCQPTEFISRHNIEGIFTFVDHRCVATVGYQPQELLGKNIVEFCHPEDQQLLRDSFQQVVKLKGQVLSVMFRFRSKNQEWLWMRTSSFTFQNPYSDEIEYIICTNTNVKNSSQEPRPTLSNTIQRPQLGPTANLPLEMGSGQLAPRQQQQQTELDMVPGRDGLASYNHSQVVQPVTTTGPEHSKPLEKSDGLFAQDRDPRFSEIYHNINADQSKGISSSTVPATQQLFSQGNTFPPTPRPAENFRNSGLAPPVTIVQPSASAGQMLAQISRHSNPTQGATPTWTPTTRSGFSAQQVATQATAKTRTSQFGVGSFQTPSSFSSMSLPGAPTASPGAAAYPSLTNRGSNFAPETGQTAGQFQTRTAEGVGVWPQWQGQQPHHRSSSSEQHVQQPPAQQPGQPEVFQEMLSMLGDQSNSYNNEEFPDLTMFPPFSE

The target of the assay is T1, GST-ATF5 (UniProt Q9Y2D1).
T1 sequence: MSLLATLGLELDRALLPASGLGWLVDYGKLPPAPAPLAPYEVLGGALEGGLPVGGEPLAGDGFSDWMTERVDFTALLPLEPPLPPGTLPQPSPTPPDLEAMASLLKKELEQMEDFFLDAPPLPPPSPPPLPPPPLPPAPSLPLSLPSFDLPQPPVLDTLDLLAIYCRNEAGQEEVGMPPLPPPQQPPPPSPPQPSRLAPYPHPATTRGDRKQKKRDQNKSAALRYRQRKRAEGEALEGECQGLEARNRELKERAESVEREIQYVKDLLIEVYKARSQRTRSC
Put plainly: pull-down; GST-ATF5 on GST beads incubated with in vitro-transcribed/translated proteins, washed five times, western blot; only the target purified. (Immunoblotting shows a protein as a band on a membrane.)

These are yes or no findings as the source states them, for the method shown. Binding seen in cells or lysates may run through a third protein. Some entries that bind do so weakly or less than the wild type. Sequences can lack the tags named with a protein.

In the case of “HIF1α (in vitro-transcribed/translated) (from UniProt Q16665 1-826)”, the binding result is on record as “binds”.

In the case of “HIF1β (in vitro-transcribed/translated) (from UniProt P27540 1-789)”, the binding entry is given as “no binding”.
